# Data taken from publication PMC5727386.
# Amino acid sequences for entries named in this document (tags omitted). A change or cut given only in a name is not applied to a line headed by its entry.
# UniProt Q64096: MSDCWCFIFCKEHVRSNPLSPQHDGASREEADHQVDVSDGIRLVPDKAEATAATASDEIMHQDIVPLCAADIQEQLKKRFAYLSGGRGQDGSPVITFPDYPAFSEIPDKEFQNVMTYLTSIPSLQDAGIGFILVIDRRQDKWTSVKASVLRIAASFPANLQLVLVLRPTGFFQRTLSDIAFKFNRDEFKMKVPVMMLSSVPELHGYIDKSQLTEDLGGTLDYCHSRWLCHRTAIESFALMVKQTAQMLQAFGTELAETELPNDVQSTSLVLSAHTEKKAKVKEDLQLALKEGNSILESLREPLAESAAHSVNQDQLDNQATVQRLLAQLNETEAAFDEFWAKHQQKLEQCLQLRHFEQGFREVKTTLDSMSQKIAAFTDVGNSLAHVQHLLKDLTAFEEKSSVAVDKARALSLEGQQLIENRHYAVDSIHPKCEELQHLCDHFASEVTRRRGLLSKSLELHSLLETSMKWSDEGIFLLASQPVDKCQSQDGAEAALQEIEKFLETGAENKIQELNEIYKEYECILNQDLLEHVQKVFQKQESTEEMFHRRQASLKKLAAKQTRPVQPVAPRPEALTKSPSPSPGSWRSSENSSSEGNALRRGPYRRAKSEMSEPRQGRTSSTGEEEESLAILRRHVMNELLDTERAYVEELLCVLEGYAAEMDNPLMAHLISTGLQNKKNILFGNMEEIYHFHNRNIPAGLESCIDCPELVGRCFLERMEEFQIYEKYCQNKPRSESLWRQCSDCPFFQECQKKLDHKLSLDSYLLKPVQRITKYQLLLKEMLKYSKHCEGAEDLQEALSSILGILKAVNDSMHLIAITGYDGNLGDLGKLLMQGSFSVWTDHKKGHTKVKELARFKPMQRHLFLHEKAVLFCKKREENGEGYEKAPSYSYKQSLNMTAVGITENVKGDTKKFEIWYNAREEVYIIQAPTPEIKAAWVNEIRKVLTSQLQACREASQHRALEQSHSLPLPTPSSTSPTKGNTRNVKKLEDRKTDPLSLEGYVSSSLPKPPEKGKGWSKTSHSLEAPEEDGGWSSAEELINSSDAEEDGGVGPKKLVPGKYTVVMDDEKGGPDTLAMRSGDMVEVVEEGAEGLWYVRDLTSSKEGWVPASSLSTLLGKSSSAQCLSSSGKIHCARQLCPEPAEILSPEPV
# UniProt P60953: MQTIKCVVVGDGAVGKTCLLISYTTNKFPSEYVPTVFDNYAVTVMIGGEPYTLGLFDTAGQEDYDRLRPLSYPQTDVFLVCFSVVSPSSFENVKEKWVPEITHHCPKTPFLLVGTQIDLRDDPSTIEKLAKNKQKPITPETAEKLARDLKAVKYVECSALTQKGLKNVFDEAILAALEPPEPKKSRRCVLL
# UniProt P61586: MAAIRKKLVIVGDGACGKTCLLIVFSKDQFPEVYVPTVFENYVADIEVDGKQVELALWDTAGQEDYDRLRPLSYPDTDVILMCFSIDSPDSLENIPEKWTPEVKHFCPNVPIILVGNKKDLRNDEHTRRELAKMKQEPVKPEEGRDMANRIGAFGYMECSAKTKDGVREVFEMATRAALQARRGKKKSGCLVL
# Results are given in words; binding and its absence hold for the method and conditions named. A result given as binding can be weak or reduced; the word gives no strength.
# What was measured:
# Dbs DH–PH domain [1] = target: Dbs DH–PH domain (UniProt Q64096); assay: SEC; co-migration on analytical Superdex75 10/300; DH–PH or DH constructs mixed with GTPases 1:2, dialysed into EDTA- or MgCl2-containing buffer overnight at 4 °C; both purified
# Dbs DH–PH domain [2] = target: Dbs DH–PH domain (UniProt Q64096); assay: pull-down; Ni-NTA Sepharose; His-tagged DH–PH or DH constructs as bait, untagged GTPases as prey, 1:2 molar ratio; dialysed into 25 mM Tris-HCl pH 7.5, 150 mM NaCl, 2 mM DTT with 1 mM EDTA or 10 mM MgCl2; 2 h at 4 °C; Coomassie SDS-PAGE; both purified
Substance,binding (Dbs DH–PH domain [1]),binding (Dbs DH–PH domain [2])
Cdc42 (from UniProt P60953 1-191) (enzyme),binds,binds
RhoA (from UniProt P61586 1-193) (enzyme),binds,binds
